Measured values from PubChem BioAssay AID493014 (National Center for Advancing Translational Sciences (NCATS), 2011).
About 170 (0.05%) of roughly 340,000 compounds were called active. The shares of active, inactive and inconclusive entries below differ from those in the screen. The call rests on the fitted dose curve; in most records, active means well fitted inhibition curve with a large enough effect in the signal ratio, with a control signal flat (not every such curve was filed as active); inconclusive means small, poorly fitted or top-dose-only effect, or effect the other way, or a change in a side signal; inactive means flat fitted curve, though single readings scatter; the % refers to the signal ratio. A potency beside an inconclusive call is a rough fit, not a confirmed value.

Test: qHTS Assay to Find Inhibitors of Chronic Active B-Cell Receptor Signaling;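 on activity change, negative = inhibition: plate controls were basal doxycycline-induced cells for no effect and cells given 10 µM MG132 for full effect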
Details: ABC-DLBCL IkBa-CBG/CBR reporter, luminescence ratio (green luciferase fused to IkBa over red control in TMD8 lymphoma cells), 4 h; activity change, negative = inhibition: at 46.1 µM (top of the series)
How it was run: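 TMD8 ABC-DLBCL cells carrying doxycycline-inducible green luciferase fused to IkappaBalpha plus unfused red luciferase were exposed to compounds (up to 46 uM) for 4 hrs at 37C. Activity came from the overlap-corrected green/red luminescence ratio.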
Potency means the concentration at half of the fitted maximal effect.

Compound	activity change, negative = inhibition	Potency
Cn1nnnc1SCC(=O)NC1CCCC1	inactive	
COc1ccc(N/N=C(/C(N)=O)C2=NC(C)(C)Cc3ccccc32)cc1	inconclusive: -8.37%	
CC(=O)N1CCN(S(=O)(=O)c2cccc(C(=O)NNC(=O)COc3ccc(F)cc3)c2)CC1	inactive	
CC(=O)Nc1ccc(NS(=O)(=O)c2cc(-c3n[nH]c(=O)c4ccccc34)ccc2C)cc1		inconclusive: 11.2 µM [falling, partial curve]
Cc1c(-c2cccc(Cl)c2)nc2ccccc2c1C(=O)OC/C(O)=C(\C#N)c1nc2ccccc2[nH]1	inconclusive: 3.66%	
CN1CCN(C2OC(=O)c3ccccc32)CC1 (centres undefined)	inconclusive: -10.2%	
CCOC(=O)C1(Cc2cccc(OC)c2)CCN(Cc2cccc3c2OCO3)CC1	inactive	
COc1cccc(/C=C/C(=O)OCC(=O)NCc2ccco2)c1OC	inconclusive: -4.33%	
Cc1ccc(NC(=O)C(=O)NCc2ccc(/C=N/NC(=O)c3c(C)nc4ccccn34)o2)cc1		inconclusive: 16.4 µM [falling, partial curve]
CCN(CC)S(=O)(=O)c1cccc(C(=O)Nc2ccc(S(=O)(=O)NC3=NCCCCC3)cc2)c1	inconclusive: 13.4%	
CCOc1ccc(CN(CCC#N)C(=S)NC(=O)c2ccccc2)cc1	inactive	
CNC(=S)N(CCc1c(C)[nH]c2ccc(Cl)cc12)Cc1cc(OC)c(OC)c(OC)c1	inconclusive: 0.118%	
C=CC(=O)OCCOCCOCCOCCOC(=O)C=C	inconclusive: -16%	
COc1ccc(-c2cc(Cl)cc3c(=O)c4ccccc4n(C)c23)cc1F	inactive	
OCCC1CN(Cc2ccc(Oc3ncccn3)cc2)CCN1C1CCCC1 (centres undefined)	inconclusive: -0.356%	
Cc1cc(C(=O)NN=C2CCCCC2)c2ccccc2n1		inconclusive: 16.4 µM [falling, partial curve, poor fit]
O=C(CSc1ccccc1)N1CCc2ccccc21	inconclusive: 0.0511%	
Nc1nc(SCC(=O)N2CCOCC2)[nH]c(=O)c1-c1ccccc1	inactive	
COc1ccccc1NNC(=O)c1cccnc1Oc1ccccc1		inconclusive: 12.6 µM [falling, partial curve, poor fit]
COc1ccc(OC)c(NC(=O)CCc2nnc3ccc(N4CCC(C)CC4)nn23)c1	inconclusive: 8.28%	
Cc1cc(O)c2/c(=N\N)c(-c3csc(C)n3)coc2c1	inconclusive: -3.75%	
Cn1cccc1C(=O)NC(=O)COC(=O)c1ccccc1O	inconclusive: -3.88%	
CCOc1ccc2nc(NC(=O)CN3C(=O)C4CCCCC4C3=O)sc2c1 (centres undefined)		inconclusive: 20.6 µM [falling, partial curve, poor fit]
CCOc1ccc2nc(NC(=O)CSc3cn[nH]n3)sc2c1		inconclusive: 25.1 µM [falling, single point]
O=C(CN1C(=O)CSc2ccccc21)Nc1ccc2c(c1)OCCO2	inconclusive: -1.5%	
C=CCOc1ccc2ccccc2c1/C=N/O	inconclusive: -2.06%	
Cc1ccc(NC(=S)Nc2cccc3cnccc23)cc1	inactive	

Compound	activity change, negative = inhibition	Potency
CN(C)c1nc2ccc(OCCN3CCCCC3)cc2s1	inactive	
Cc1ccc(C(=O)NC(=S)Nc2ccc(-c3cc4ccccc4oc3=O)cc2)c(C)c1	inconclusive: -9.69%	
COc1ccc(CN(Cc2nc3ccccc3c(=O)[nH]2)C(=O)NC2CCCCC2)cc1	inactive	
CC1CCCN(CCCOc2ccccc2-c2ccccc2)C1 (centres undefined)	inactive	
Fc1ccc(-c2ccc(Nc3cccc(F)c3)nn2)cc1		inconclusive: 22.4 µM [falling, single point]
CCN(CC(=O)NCc1cccs1)C(=O)c1ccc(-c2ccccc2F)o1	inconclusive: 6.68%	
c1ccc(NCc2ccncc2)cc1	inactive	
Cc1noc(C)c1S(=O)(=O)Nc1ccc(C(=O)Nc2ccc(OC(F)(F)F)cc2)cc1	inconclusive: -8.02%	
CCCCNC(=O)c1ccc2c(OCC)n(CCCC)nc2c1	inconclusive: 6.58%	
CCC(=O)Nc1cccc(-c2nnc(SCC(=O)c3ccccc3)n2C)c1		inconclusive: 22.4 µM [cytotoxic, single point]
Cc1nc2nc(COc3ccccc3)[nH]n2c(=O)c1Cc1ccccc1		inconclusive: 25.9 µM [rising, single point]
Cc1c(C(=O)N(C)Cc2ccccc2)oc2ccc(S(=O)(=O)N3CCCC3)cc12	inactive	
Cc1ccc(NCc2ccc(O)c3ncccc23)cc1		inconclusive: 35.5 µM [falling, single point]
NNC(=S)Nc1c(F)cc(F)cc1Br		inconclusive: 15.8 µM [falling, partial curve, poor fit]
O=C1CCc2cc(NS(=O)(=O)c3ccc(Br)cc3)cc3c2N1CC3	inactive	
Cc1cc(C)cc(NC(=O)Nn2cnnc2)c1	inactive	
N#Cc1ccccc1OCC(=O)NC(=O)NCc1ccco1		inconclusive: 4.47 µM [rising, full curve, poor fit]
Cc1ccc(C(=O)Nc2ccccc2C(=O)O)cc1S(=O)(=O)NCc1ccccc1	inactive	
COc1cc(/C=C/C(=O)OCC(=O)NCc2ccccc2OC)ccc1O		inconclusive: 13 µM [falling, partial curve]
CC1Oc2ccccc2N(CC(=O)Nc2ccc3c(c2)OCCO3)C1=O (centres undefined)	inconclusive: -5.43%	
Cc1cnc(CNC(=O)c2ccc(OC3CCN(C(=O)C4CC4)CC3)cc2)cn1	inactive	
CCN1CCC(NCCc2ccc(F)cc2)CC1	inactive	
NC1=NC(=O)/C(=C\c2cc([N+](=O)[O-])ccc2Cl)S1	inactive	
COc1ccc(C(=O)c2ccc(Br)cc2)cc1		inconclusive: 1.41 µM [falling, partial curve, poor fit]
Cc1ccc(S(=O)(=O)N2[C@@H](c3ccc(C(C)(C)C)cc3)C(C(=O)O)=CC[C@H]2c2ccc(Cl)cc2)cc1	inconclusive: 1.76%	
CN(CCNC(=O)C1CCC(=O)N(Cc2ccc(Cl)cc2)C1)CCc1ccccc1 (centres undefined)	inconclusive: -1.7%	
COc1cc2cc(-c3ccc(O)cc3O)nc(C)c2cc1OC		inconclusive: 3.55 µM [falling, single point]

Pulled by compound from above:
Compound	activity change, negative = inhibition	Potency
NNC(=S)Nc1c(F)cc(F)cc1Br		inconclusive: 15.8 µM [falling, partial curve, poor fit]
O=C1CCc2cc(NS(=O)(=O)c3ccc(Br)cc3)cc3c2N1CC3	inactive	
CC1CCCN(CCCOc2ccccc2-c2ccccc2)C1 (centres undefined)	inactive	
